Results are given in words; binding and its absence hold for the method and conditions named. Some results given as binding are weak or reduced against the parent protein; the word gives no strength.

Sequences of proteins named here, by UniProt entry; tags and fusion partners are left off. A change or cut given only in a name is not applied to a line headed by its entry.
UniProt P02671: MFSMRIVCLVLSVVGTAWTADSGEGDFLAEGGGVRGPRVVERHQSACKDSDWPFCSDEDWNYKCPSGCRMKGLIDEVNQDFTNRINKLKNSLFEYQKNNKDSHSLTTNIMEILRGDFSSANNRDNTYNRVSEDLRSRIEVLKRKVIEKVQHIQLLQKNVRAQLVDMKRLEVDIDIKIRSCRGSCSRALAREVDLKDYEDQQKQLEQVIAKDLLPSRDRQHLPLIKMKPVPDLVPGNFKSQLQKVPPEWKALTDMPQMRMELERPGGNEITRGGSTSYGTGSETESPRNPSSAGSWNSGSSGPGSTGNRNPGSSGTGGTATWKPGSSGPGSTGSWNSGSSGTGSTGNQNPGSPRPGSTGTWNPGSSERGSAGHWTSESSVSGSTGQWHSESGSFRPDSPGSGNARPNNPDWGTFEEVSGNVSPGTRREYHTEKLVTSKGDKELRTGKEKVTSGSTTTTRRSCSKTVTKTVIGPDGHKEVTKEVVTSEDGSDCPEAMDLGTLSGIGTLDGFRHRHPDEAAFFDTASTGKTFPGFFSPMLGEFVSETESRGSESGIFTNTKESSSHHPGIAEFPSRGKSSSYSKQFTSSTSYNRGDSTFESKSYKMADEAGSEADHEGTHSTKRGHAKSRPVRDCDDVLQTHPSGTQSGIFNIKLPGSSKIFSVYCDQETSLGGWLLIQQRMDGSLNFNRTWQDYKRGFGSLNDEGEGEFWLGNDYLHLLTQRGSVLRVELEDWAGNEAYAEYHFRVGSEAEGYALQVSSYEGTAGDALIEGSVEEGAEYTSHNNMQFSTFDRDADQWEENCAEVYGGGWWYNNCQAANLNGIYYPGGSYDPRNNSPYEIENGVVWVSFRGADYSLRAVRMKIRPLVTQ
UniProt P02675: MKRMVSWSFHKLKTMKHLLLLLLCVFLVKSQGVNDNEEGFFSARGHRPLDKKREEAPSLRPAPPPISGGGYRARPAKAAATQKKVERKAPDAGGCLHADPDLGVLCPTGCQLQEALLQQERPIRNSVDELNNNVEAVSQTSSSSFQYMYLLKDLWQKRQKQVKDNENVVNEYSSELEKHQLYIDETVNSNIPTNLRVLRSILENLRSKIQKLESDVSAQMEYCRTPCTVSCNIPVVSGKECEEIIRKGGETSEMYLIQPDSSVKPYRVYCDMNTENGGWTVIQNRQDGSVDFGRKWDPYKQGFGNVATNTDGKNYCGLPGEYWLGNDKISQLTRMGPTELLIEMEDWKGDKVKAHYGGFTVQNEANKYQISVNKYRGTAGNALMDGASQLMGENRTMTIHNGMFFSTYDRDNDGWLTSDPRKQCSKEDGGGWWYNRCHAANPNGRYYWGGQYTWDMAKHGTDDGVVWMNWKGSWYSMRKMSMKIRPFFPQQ
UniProt P02679: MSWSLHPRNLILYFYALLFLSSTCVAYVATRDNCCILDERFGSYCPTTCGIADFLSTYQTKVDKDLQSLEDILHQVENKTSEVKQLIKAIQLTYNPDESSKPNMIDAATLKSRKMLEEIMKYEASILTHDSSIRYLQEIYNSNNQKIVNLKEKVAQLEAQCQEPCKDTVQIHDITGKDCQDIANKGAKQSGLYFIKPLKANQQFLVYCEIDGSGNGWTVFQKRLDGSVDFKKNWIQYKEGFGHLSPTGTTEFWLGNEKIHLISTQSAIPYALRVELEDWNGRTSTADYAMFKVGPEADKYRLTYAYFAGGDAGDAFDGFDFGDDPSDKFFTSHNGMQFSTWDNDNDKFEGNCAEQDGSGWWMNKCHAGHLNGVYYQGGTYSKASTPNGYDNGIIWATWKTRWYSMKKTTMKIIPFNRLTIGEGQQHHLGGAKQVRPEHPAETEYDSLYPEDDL

In the experiment the target is Fragment D of fibrinogen (human) (UniProt P02671+P02675+P02679). The experiment can be described thus: ELISA on immobilized fragment D. On the technique in general: ELISA stands for enzyme-linked immunosorbent assay.

B1: recombinant VWF-A2 domain polypeptide (amino acids G1481-R1668) (other)
chain: GLLGVSTLGPKRNSMVLDVAFVLEGSDKIGEADFNRSKEFMEEVIQRMDVGQDSIHVTVLQYSYMVTVEYPFSEAQSKGDILQRVREIRYQGGNRTNTGLALRYLSDHSFLVSQGDREQAPNLVYMVTGNPASDEIKRLPGDIQVVPIGVGPNANVQELERIGWPNAPILIQDFETLPREAPDLVLQR
notes: Expressed in E. coli as a fusion protein with a His tag at the N terminus; monomeric on SDS-PAGE; also called A2 protein; VWF-A2 protein; not shown: N-terminal His tag from the vector
Consider B1, for which the binding result is on record as “binds”.
